Measured values reported in patent publication US20250129155A1 (INNOBATION BIO, published 2025).
Where a chain is given by its changes, count along the chain named. Results are given in words; binding and its absence hold for the method and conditions named. Some entries that bind do so weakly or less than the wild type. Where a sequence is shown, tags or fusion partners need not be part of it.

Amino acid sequences for entries named in this document (tags omitted). Residues count along the entry.
UniProt Q08722, residues 19-139: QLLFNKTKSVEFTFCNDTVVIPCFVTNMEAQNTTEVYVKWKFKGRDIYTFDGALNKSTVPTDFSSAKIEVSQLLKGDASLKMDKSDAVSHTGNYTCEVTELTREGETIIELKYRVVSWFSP

B1: Hu3A5(V1) antibody (antibody, V domains shown)
VH: EVQLVQSGAEVKKPGASVKVSCKASGYTFTSYWMHWMRQAPGQGLEWIGVIDPSDSYTSYNQKFQGRVTLTVDTSTSTAYMELSSLRSEDTAVYYCARGGKRAMDYWGQGTTVTVSS
VL: DVVMTQSPLSLPVTLGQPASISCRSSQSLVHSNGNTYLHWFQQRPGQSPRLLIYKVSNRFSGVPDRFSGSGSGTDFTLKISRVEAEDVGVYFCSQSTHVPFTFGGGTKLEIK
B2: Hu3A5 (V2) antibody (antibody, V domains shown)
VH: B1 VH
VL: B1 VL with F92Y
B3: Hu3A5 (V5) antibody (antibody, V domains shown)
VH: B1 VH with E1Q, M37V, I48M, L70M
VL: B1 VL
B4: Hu3A5 (V6) antibody (antibody, V domains shown)
VH: B1 VH with E1Q, M37V, I48M, L70M
VL: B1 VL with F92Y
B5: Hu3A5 (V3) antibody (antibody, V domains shown)
VH: B1 VH
VL: DVVMTQSPDSLAVSLGERATINCKSSQSLVHSNGNTYLHWYQQKPGQPPKLLIYKVSNRFSGVPDRFSGSGSGTDFTLTISSLQAEDVAVYFCSQSTHVPFTFGGGTKLEIK
B6: Hu3A5 (V4) antibody (antibody, V domains shown)
VH: B1 VH
VL: B5 VL with F92Y
B7: Hu3A5 (V7) antibody (antibody, V domains shown)
VH: B1 VH with E1Q, M37V, I48M, L70M
VL: B5 VL
B8: Hu3A5 (V8) antibody (antibody, V domains shown)
VH: B1 VH with E1Q, M37V, I48M, L70M
VL: B5 VL with F92Y
B9: Hu3A5 (V9) antibody (antibody, V domains shown)
VH: EVQLVQSGSELKKPGASVKVSCKASGYTFTSYWMHWMRQAPGQGLEWIGVIDPSDSYTSYNQGFTGRFVLSVDTSVSTAYLQISSLKAEDTAVYYCARGGKRAMDYWGQGTTVTVSS
VL: B1 VL
B10: Hu3A5(V10) antibody (antibody, V domains shown)
VH: B9 VH
VL: B1 VL with F92Y
notes: also called humanized 3A5(V10) antibody; humanized Hu3A5(V10) antibody
B11: Hu3A5(V11) antibody (antibody, V domains shown)
VH: B9 VH
VL: B5 VL
B12: Hu3A5(V12) antibody (antibody, V domains shown)
VH: B9 VH
VL: B5 VL with F92Y

Target: CD47 protein (Acrobiosystems, cat #CD7-HA2E9) (UniProt Q08722)
Test: ELISA, CD47 protein coated

binding, binds:
B1
B2
B3
B4
B5
B6
B7
B8
B9
B10
B11
B12
